# Reference: PubChem BioAssay AID2685 (National Center for Advancing Translational Sciences (NCATS), 2010)
# Among all 320,000 compounds or so, about 2,100 (0.66%) were called active. The inconclusive results got no clear call from the source; some entries with a clear call stand among them for comparison. Calls come from the whole dose curve; as a rule, active = well fitted inhibition curve with a large enough effect in the signal ratio, with a control signal flat (not every such curve was filed as active); inconclusive = small, poorly fitted or top-dose-only effect, or effect the other way, or a change in a side signal; inactive = flat fitted curve, though single readings scatter; the % refers to the signal ratio. Where the call is inconclusive, the potency comes from a doubtful curve fit.
# Test: qHTS Assay for Lipid Storage Modulators in Drosophila S3 Cells
# Settings: BODIPY lipid droplet fluorescence, 18-24 h, cells fed with added oleic acid; lipid storage change, negative = inhibition: at 46.1 µM (top of the series) unless noted
# In short: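 Drosophila S3 cells loaded with oleic acid (400 uM, as added) and compounds at several concentrations; lipid droplets imaged by 488-nm laser-scanning cytometry, 500–530 nm intensity and object ratio to cell channel. Percent activity normalized to 20 uM Triacsin C.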
# % is set by controls: 0 for no effect and ±100 for the full control effect; potency is the fitted concentration of half-maximal effect.
SMILES,"lipid storage change, negative = inhibition",Potency
COC(C(=O)Nc1cc([N+](=O)[O-])ccc1C)c1ccccc1 (stereo not given),inconclusive: 20.1%,–
CC1CCc2c(sc(NC(=O)CSc3nnc(-c4ccccc4)o3)c2C#N)C1 (stereo not given),inconclusive: 24.1%,–
Cn1c(C(=O)NCCN2CCc3ccccc3C2)cc2c(=O)n(C)c3ccccc3c21,–,"inconclusive: 5.17 µM [activator, single point]"
CCC(=O)Nc1nc(C)c(-c2csc(Nc3cccc(O)c3)n2)s1,–,active: 29.1 µM
COC(=O)CSc1nc2sc3c(c2c(=O)n1-c1ccccc1)CCN(C)C3,inconclusive: 52.4%,–
NC(=O)C1CCN(C(=O)C2CCN(S(=O)(=O)c3ccccc3)CC2)CC1,inconclusive: -22.3%,–
COCCn1c(=N)c(S(=O)(=O)c2ccc(F)cc2)cc2c(=O)n3ccccc3nc21,inconclusive: -50.3%,–
Cc1cccc(-n2cc(CN3CCN(Cc4nccn4C)CC3)c(-c3cccc(F)c3)n2)c1,inconclusive: -20.6%,–
Cc1ccc(NC(=O)CSC2=C(C#N)C(c3ccco3)C3=C(CCCC3=O)N2)cc1 (stereo not given),inconclusive: 3.51%,–
CCOc1ccc(Oc2c(/C=N/NC(=O)C3CC3)c(C)nn2-c2ccccc2)cc1,–,"inconclusive: 29.1 µM [falling, single point]"
COc1ccc(C(CNC(=O)c2ccc(OCc3c(C)noc3C)cc2)N2CCCC2)cc1 (stereo not given),inconclusive: 10.8%,–
O=C(c1ccc(N2CCOCC2)c([N+](=O)[O-])c1)N1CCN(S(=O)(=O)c2cccs2)CC1,inconclusive: 20.5%,–
O=C(/C=C/c1ccccc1Cl)Nc1cccc(S(=O)(=O)NC2=NCCCCC2)c1,–,"inconclusive: 2.06 µM [falling, partial curve, poor fit]"
CC1CC(C)CN(S(=O)(=O)N2CCCC(C(=O)NCc3ccccc3Cl)C2)C1 (stereo not given),–,"inconclusive: 14.6 µM [activator, partial curve, poor fit]"
Cc1cc(F)ccc1S(=O)(=O)Nc1ccccc1C(=O)NCc1ccccn1,inconclusive: 90.5%,–
O=C(N/N=C/c1cccc(Br)c1)c1ccc(N2CCCC2=O)cc1,inconclusive: 116%,–
O=C(CSCc1ccc(Cl)cc1)Nc1ccc2c(c1)OCO2,inconclusive: 8.6%,–
COc1cc(NC(=S)NCc2ccco2)c(OC)cc1Cl,inconclusive: 3.1%,–
Cc1ccc2nc(NC(=O)COC(=O)CSc3nc(C)cc(C)n3)sc2c1,inconclusive: 19.8%,–
Oc1ccc(/C=N/NC(=S)NC2CC3CCC2C3)cc1 (stereo not given),–,"inconclusive: 0.0046 µM [cytotoxic, full curve, poor fit]"
CC[C@@]1(c2ccccc2)C(=O)N(C(=O)OC)N1C(=O)OC,–,"inconclusive: 6.51 µM [activator, single point]"
Oc1ccc(-c2nc3ccccc3s2)c(O)c1,inconclusive: 7.47%,–
C/C(=N\NC(=S)Nc1cccc(C)c1)c1cccc(N)c1,inconclusive: 6%,–
O=C1c2cccc([N+](=O)[O-])c2C(=O)N1C1CCCCC1,inconclusive: -46.5%,–
CCCCn1c(N)c(N(CCOC)C(=O)c2ccc(-n3c(C)ccc3C)cc2)c(=O)[nH]c1=O,–,"inconclusive: 29.1 µM [activator, single point]"

SMILES,"lipid storage change, negative = inhibition",Potency
Cc1ccc(NC(=O)CCNS(=O)(=O)c2ccc3[nH]c(=O)oc3c2)cc1,inconclusive: 20%,–
CN1CCN(c2ccc(NC(=O)CSc3nnnn3-c3ccccc3Cl)cc2)CC1,inconclusive: 62.7%,–
COc1ccccc1CCNC(=O)c1ccc(Br)s1,inconclusive: 4.78%,–
N#Cc1ccc(-c2csc(NC3=NCCCCC3)n2)cc1,–,"inconclusive: 1.64 µM [falling, partial curve, poor fit]"
O=C(CCCN1C(=O)S/C(=C/c2ccccc2)C1=S)Nc1ccc(C(=O)O)cc1,inactive,–
Cc1cc(NS(=O)(=O)c2ccc(NC(=O)COc3ccc(Cl)cc3Cl)cc2)no1,–,"inconclusive: 4.11 µM [activator, partial curve]"
Cc1ccccc1NC(=O)COC(=O)c1c[nH]c(=O)[nH]c1=O,–,"inconclusive: 0.92 µM [activator, full curve, poor fit]"
COc1ccc2c(c1)NC(c1ccc(N(C)C)cc1)c1cccn1-2 (stereo not given),inconclusive: -38.1%,–
CCN1CCN(Cc2c(O)ccc3c2O/C(=C\c2ccccc2)C3=O)CC1,inconclusive: 24.6%,–
Cc1cccc(C)c1OCc1nnc(SCC(=O)Nc2nccs2)o1,inconclusive: 40.4%,–
COC(=O)c1cc(NC(=O)c2c(-c3c(Cl)cccc3Cl)noc2C)ccc1N1CCOCC1,inconclusive: 25.9%,–
CCCC(=O)OCC(=O)Nc1ccc(N=Nc2ccccc2)cc1,inconclusive: 31.8%,–
CCOC(=O)c1c(NC(=O)Cc2ccccc2)sc2c1CC(C)(C)NC2(C)C,–,"inconclusive: 29.1 µM [activator, single point]"
COC(=O)c1cccc(NC(=S)N2CCOCC2)c1,inconclusive: -1.35%,–
COC(=O)c1ccccc1-c1c2ccc(=N)cc-2oc2cc(N)ccc12,–,"inconclusive: 0.517 µM [cytotoxic, full curve]"
COc1ccc([N+](=O)[O-])cc1Nc1ncnc2ccccc12,inconclusive: 6.61%,–
Cc1nc2cccc(C(=O)NC3CCCCC3)c2o1,–,"inconclusive: 16.4 µM [rising, partial curve]"
COC(=O)C1=C(C)N(Cc2ccccc2)C(=NCCCCO)N[C@H]1CCc1ccccc1,inconclusive: -36.4%,–
c1nc(NCc2ccc3c(c2)OCO3)c2cc(-c3ccoc3)ccc2n1,inconclusive: 26.8%,–
CCC(=O)Nc1ccc2nc(C3CC3)n(Cc3ccc(C(C)(C)C)cc3)c(=O)c2c1,–,"inconclusive: 11.6 µM [falling, partial curve]"
COc1ccc(NC(=O)CCCSc2ccccc2)cc1,inconclusive: 23.7%,–
CCOC(=O)c1[nH]c(C)c(C)c1C,inconclusive: 23%,–
CC(C)C(=O)NC(Nc1cccc2cccnc12)C(Cl)(Cl)Cl (stereo not given),–,"inconclusive: 25.9 µM [activator, single point]"
COc1cc(CCNC(=O)CCCn2c(=O)c3cccn3c3cccnc32)cc(OC)c1OC,inconclusive: -7.63%,–
COc1cc(C(=O)N/N=C/c2cn(Cc3ccccc3)c3ccccc23)ccc1O,–,"inconclusive: 20.6 µM [activator, partial curve]"

SMILES,"lipid storage change, negative = inhibition",Potency
CC(C)(C)c1csc(NC(=O)Cc2cccs2)n1,inconclusive: -54.7% [at 0.369 µM],–
O=C(Nc1ccc(F)cc1)NC1CCCc2ccccc21 (stereo not given),inconclusive: 7.79%,–
CCOC(=O)c1ccc(OCc2nc(-c3cccs3)no2)cc1,inconclusive: 50.2%,–
CC(OC(=O)CN(C)S(=O)(=O)c1ccc(Cl)cc1)C(=O)Nc1ncc(Cl)cc1Cl (stereo not given),inconclusive: 8.19%,–
O=C(NN=C1CCCCCCCCCCC1)c1cccnc1,inconclusive: 12.5%,–
O=C(Nc1ccc(Oc2ccccc2)nc1)C1CCCCN1Cc1cccc(O)c1 (stereo not given),–,"inconclusive: 4.11 µM [falling, partial curve]"
CCOC(=O)/C=C/C(=O)OCC(=O)Nc1ccc(OC)c(Cl)c1,–,"inconclusive: 0.731 µM [falling, full curve, poor fit]"
O=C(CSc1ncnc2c1cnn2CCO)Nc1cccc(C(F)(F)F)c1,inconclusive: 7.75%,–
CSCc1ccc(C(=O)N2CCC(CCC(=O)N(C)Cc3ccccc3)CC2)o1,–,"inconclusive: 0.0058 µM [falling, full curve, poor fit]"
CC1CC(C)CN(S(=O)(=O)c2ccc3oc(=O)ccc3c2)C1 (stereo not given),inconclusive: 23.2%,–
CC(NC(=O)C(=O)NCCN1CCN(C(=O)c2ccc([N+](=O)[O-])cc2)CC1)c1ccccc1 (stereo not given),inconclusive: 35.1%,–
CC(C)(C)NC(=O)CN1CCC(O)(c2ccccc2)CC1,inconclusive: -114%,–
O=C(O)c1ccccc1C(=O)NC1CCN(c2nccc(C(F)(F)F)n2)CC1,inconclusive: -19.4%,–
CC(=O)c1cccc(NC(=O)COC(=O)c2cccc(N3C(=O)c4ccccc4C3=O)c2)c1,inconclusive: 21%,–
O=[N+]([O-])c1ccc(S(=O)(=O)Nc2nc(-c3ccccc3)cs2)cc1,inconclusive: -26.5%,–
COc1ccc(C(C(=O)NCc2ccc(F)cc2)N(C(=O)c2csnn2)C2CC2)cc1 (stereo not given),inconclusive: -13.4%,–
CCc1nnc(NC(=O)C2CCC(CNc3c(N4CCCCC4)c(=O)c3=O)CC2)s1 (stereo not given),inconclusive: 24.9%,–
O=C(Nc1cccc(S(=O)(=O)N2CCCCC2)c1)C1CC1,inconclusive: -65.8%,–
CC1CN(c2c3c(nc4ncnn24)CCCC3)CC(C)O1 (stereo not given),–,"inconclusive: 1.16 µM [cytotoxic, full curve]"
COc1cccc(CC(CC(=O)O)C(=O)Nc2cc(C)ccc2C)c1 (stereo not given),inconclusive: 69.5%,–
O=C(CSc1nnc(-c2ccncc2)n1Cc1ccccc1)NC1CCCCC1,inconclusive: 7.48%,–
Cc1cccc(CCNC(=O)CN(C)S(=O)(=O)c2ccc3c(c2)c(=O)n(C)c(=O)n3C)c1,inconclusive: 57.5%,–
COc1ccc(C(=O)Nc2ccc3c(c2)C(=O)c2ccccc2C3=O)cc1OC,–,"inconclusive: 1.84 µM [activator, partial curve]"
O=C(c1ccc(Cl)c([N+](=O)[O-])c1)N(Cc1ccco1)C1CCS(=O)(=O)C1 (stereo not given),–,"inconclusive: 16.4 µM [activator, partial curve]"
COc1ccc(-c2[nH]ncc2-c2nc(C)cs2)c(O)c1,inconclusive: -30.7% [cytotoxic] [at 0.00295 µM],–

# As entered above:
# For lipid storage change, negative = inhibition, CCc1nnc(NC(=O)C2CCC(CNc3c(N4CCCCC4)c(=O)c3=O)CC2)s1 (stereo not given) has inconclusive: 24.9%
# For lipid storage change, negative = inhibition, O=C(O)c1ccccc1C(=O)NC1CCN(c2nccc(C(F)(F)F)n2)CC1 has inconclusive: -19.4%
# For lipid storage change, negative = inhibition, O=C(Nc1cccc(S(=O)(=O)N2CCCCC2)c1)C1CC1 has inconclusive: -65.8%
